Experimental data: patent US12029715B2, “Precursor compounds for providing retinoids of the vitamin A5 pathway and uses thereof” (UNIVERSITY OF DEBRECEN, priority 2015, dated 2024)
Entries after “also recorded” stand apart in the source; their conditions may differ. At least one structure is not confirmed: it was looked up by name or label, or the drawing left a doubt.

How the values were obtained:
[1] = test system: differentiating monocyte-derived human dendritic cells; experiment: DNA microarray in differentiating monocyte-derived dendritic cells; type: cell-based; conditions: 9CDHRA 10 μM, 9CRA 1 μM, LG268 100 nM, GW3965 1 μM, RSG 1 μM, GW1516 1 μM, AM580 100 nM
Description: The generation and transcriptional analysis of differentiating DCs were performed as described previously [Szeles L et al. 2010]. Microarray data were deposited into the Gene Expression Omnibus database under accession no. GSE48573.
The generation and analysis of differentiating DCs were performed as described previously [Szeles L et al. 2010] with minor modifications. Briefly, human monocytes were isolated from healthy volunteer's buffy coat, obtained with a Regional Ethical Board permit from the Regional Blood Bank and isolated by Ficoll gradient centrifugation followed by immunomagnetic cell separation, and were cultured in the presence of GM-CSF and IL-4. Differentiating DCs were stimulated 18 h after […] by various agonists for 12 h. The ligands were used in the following concentrations: 10 μM (R)-9CDHRA, 10 μM (S)-9CDHRA, 1 μM 9cisRA, 100 nM LG100268, 1 μM GW3965, 1 μM Rosiglitazone (RSG), 1 μM GW1516, 100 nM AM580. Experiments were performed in biological triplicates. Samples were processed and hybridized to Human Genome U133 Plus 2.0 Arrays. Data were analysed using to GeneSpring 12.6.1 software. In detail, normalization was performed using RMA summarization algorithm. […] Microarray data were deposited into the Gene Expression Omnibus database under accession no. GSE48573.

[2] = test system: Rbp1−/− and Rxrγ−/− mice; experiment: Y-maze spontaneous alternation; type: in vivo, mouse; conditions: 5-6 hours prior to testing
Description: The Y-maze apparatus and the procedure were as previously described (Wietrzych et al., 2005). Briefly, each mouse was placed at the end of one arm and allowed to explore freely the apparatus for 5 min, with the experimenter out of the animal's sight. Spontaneous alternation performance (SAP) was assessed visually by scoring the pattern of entries into each arm and expressed as a percentage of total number of entries, discounting the first two visits. Total entries were scored as an index of ambulatory activity in the Y-maze, but none of tested mice had to be excluded due to low locomotor performance (score below 9 entries).
(§1) Vehicle treatments consisted of 3% ethanol and 3% DMSO solution in sunflower oil. Treatments were administered by intraperitoneal injections at volume/weight ratio 3 ml/kg between 8-10 am and 5-6 h before the test as previously validated (Wietrzych-Schindler M, 2011).

[3] = test system: Rbp1−/−, Rxrγ−/− and WT mice; experiment: Forced swim test after acute treatment; type: in vivo, mouse; conditions: acute i.p. treatment 5-6 h before the test
Description: The forced swim paradigm was carried out between 1 pm and 4 pm in a 3-litre glass beaker half-filled with water at 22-23° C. (the water depth was 17 cm). All mice were tested only once in this task. To this end, each mouse was lowered gently into the water and the time of immobility was scored during a 6-minute testing period. The mouse was judged immobile when it floated in an upright position and made only small movements to keep its head above the water. After 6 min, the mouse was taken out of the water, left to dry under a red light lamp and returned to its home cage. The immobility scores of each animal were used as an index of despair behavior.
as §1
The forced swim paradigm (Dalvi and Lucki, 1999) was carried out between 1 pm and 4 pm in a 2-litre glass beaker half-filled with water at 22-23° C. (the water depth was 17 cm). All mice were tested only once in this task. To this end, each mouse was lowered gently into the water and the time of immobility was scored during a 6-minute testing period. The mouse was judged immobile when it floated in an upright position and made only small movements to keep its head above the water. […]

Row | SMILES | expression of genes that are direct targets of RXR permissive heterodimers (LXR-RXR, PPAR-RXR) and RAR-RXR [1] | working memory in spontaneous alternation in the Y-maze ([2]; Rbp1−/− mice, ATRA 5 mg/kg, UVI2108 1 mg/kg, MA 5 mg/kg, DHA 1 mg/kg, TTNPB 5 mg/kg) | working memory in spontaneous alternation in the Y-maze ([2]; Rxrγ−/− mice, same doses) | immobility (despair) in the forced swim test [3]
1 | CN(CCOc1ccc(CC2SC(=O)NC2=O)cc1)c1ccccn1 (stereo not shown) [RSG, Rosiglitazone, reference compound] | also induced |  |  | 
2 | CC/C=C\C/C=C\C/C=C\C/C=C\C/C=C\C/C=C\CCC(=O)O [DHA, docosahexaenoic acid] |  | normalised; also recorded: pro-mnemonic effects | not | normalised; also recorded: normalized increased despair
